Chains of the proteins cited; added tags and fusions are not shown.
UniProt O95071: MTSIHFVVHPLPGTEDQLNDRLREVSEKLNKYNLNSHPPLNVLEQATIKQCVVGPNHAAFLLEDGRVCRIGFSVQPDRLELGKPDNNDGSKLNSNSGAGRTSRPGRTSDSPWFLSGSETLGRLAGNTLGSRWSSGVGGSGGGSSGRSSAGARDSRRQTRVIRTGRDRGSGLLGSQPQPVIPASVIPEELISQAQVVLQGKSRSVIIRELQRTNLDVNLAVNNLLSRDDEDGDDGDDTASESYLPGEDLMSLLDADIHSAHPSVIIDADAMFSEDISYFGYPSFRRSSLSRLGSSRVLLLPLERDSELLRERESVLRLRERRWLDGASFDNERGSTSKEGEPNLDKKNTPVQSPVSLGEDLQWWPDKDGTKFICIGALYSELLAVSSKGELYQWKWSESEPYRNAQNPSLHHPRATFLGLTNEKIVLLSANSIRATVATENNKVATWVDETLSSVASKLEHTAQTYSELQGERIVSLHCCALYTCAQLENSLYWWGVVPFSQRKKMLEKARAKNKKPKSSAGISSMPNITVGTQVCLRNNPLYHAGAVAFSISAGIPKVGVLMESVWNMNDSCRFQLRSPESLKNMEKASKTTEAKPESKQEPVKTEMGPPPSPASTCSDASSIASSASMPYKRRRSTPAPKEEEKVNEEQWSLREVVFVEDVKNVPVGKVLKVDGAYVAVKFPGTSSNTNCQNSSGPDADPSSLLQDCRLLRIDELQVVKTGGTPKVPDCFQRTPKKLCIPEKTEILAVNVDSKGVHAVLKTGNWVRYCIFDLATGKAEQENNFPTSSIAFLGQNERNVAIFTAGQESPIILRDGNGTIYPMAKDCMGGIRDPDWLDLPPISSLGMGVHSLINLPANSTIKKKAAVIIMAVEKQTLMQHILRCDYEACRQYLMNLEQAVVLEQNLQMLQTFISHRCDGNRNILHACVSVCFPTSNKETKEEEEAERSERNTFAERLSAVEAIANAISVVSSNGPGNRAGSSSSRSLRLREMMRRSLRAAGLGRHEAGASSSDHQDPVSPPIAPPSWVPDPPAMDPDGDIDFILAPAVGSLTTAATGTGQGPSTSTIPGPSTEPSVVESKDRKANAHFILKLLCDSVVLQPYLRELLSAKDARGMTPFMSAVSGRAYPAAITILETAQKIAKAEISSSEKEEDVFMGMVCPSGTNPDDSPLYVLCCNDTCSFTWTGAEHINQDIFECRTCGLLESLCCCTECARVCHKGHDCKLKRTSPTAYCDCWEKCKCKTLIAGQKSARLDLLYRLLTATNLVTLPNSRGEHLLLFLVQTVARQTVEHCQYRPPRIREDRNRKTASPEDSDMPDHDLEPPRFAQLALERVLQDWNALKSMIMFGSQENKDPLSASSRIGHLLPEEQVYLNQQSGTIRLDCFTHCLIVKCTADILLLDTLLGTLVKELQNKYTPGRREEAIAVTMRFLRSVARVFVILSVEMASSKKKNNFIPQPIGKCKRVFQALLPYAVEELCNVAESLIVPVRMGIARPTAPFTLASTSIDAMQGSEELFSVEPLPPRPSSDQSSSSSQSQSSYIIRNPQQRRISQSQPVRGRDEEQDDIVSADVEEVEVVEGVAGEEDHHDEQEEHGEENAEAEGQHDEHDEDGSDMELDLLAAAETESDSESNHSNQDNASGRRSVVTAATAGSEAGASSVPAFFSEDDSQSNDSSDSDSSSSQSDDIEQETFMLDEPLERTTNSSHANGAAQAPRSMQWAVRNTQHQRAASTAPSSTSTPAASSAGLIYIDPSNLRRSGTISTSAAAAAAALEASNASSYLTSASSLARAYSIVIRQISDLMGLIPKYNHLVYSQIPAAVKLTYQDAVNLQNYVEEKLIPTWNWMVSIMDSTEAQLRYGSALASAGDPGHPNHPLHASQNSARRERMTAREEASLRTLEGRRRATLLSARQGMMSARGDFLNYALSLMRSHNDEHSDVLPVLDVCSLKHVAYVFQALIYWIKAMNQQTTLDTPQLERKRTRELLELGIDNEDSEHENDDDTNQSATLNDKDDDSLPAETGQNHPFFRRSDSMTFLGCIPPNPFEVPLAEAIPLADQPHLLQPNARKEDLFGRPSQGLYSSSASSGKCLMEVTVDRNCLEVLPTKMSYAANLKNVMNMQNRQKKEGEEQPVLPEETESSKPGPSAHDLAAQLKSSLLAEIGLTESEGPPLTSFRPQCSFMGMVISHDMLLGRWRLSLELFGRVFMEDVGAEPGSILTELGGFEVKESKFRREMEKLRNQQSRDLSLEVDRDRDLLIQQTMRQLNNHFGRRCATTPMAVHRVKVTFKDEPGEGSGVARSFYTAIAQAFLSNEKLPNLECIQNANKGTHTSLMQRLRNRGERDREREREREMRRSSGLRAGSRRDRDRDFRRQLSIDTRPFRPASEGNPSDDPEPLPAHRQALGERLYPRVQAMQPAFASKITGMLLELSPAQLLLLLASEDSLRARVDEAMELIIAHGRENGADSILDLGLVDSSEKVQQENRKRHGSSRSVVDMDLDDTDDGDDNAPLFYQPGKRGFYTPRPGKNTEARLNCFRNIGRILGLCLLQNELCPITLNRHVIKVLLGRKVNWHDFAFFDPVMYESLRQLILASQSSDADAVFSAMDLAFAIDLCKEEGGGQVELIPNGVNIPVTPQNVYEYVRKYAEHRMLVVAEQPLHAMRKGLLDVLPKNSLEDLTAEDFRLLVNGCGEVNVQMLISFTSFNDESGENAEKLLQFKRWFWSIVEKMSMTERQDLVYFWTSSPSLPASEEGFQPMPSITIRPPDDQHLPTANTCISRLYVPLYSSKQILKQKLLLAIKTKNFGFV
UniProt P53350: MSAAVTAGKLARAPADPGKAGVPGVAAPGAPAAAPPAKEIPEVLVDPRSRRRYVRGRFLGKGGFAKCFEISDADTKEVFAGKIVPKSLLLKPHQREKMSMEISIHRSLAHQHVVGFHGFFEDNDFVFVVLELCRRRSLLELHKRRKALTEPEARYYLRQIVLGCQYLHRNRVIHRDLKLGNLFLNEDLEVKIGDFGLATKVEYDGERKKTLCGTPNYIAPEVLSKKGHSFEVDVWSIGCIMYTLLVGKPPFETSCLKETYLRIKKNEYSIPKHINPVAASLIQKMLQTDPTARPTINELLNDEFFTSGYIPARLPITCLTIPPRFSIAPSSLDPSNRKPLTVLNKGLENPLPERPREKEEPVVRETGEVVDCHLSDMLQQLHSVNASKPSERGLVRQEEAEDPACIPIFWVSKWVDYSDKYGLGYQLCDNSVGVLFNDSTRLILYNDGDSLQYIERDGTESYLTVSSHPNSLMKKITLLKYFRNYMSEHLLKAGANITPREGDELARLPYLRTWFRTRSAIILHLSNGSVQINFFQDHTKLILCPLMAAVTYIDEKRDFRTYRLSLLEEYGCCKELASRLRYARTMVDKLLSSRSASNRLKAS
UniProt O43684: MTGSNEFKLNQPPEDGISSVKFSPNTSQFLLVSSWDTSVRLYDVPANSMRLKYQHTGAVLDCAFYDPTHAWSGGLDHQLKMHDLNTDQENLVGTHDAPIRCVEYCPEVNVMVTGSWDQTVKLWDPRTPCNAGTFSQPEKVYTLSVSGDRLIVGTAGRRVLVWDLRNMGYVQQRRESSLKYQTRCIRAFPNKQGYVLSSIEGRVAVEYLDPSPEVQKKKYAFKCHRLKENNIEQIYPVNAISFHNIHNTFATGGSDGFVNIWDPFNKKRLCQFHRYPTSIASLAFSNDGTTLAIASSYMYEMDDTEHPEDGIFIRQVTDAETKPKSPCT
UniProt O43683: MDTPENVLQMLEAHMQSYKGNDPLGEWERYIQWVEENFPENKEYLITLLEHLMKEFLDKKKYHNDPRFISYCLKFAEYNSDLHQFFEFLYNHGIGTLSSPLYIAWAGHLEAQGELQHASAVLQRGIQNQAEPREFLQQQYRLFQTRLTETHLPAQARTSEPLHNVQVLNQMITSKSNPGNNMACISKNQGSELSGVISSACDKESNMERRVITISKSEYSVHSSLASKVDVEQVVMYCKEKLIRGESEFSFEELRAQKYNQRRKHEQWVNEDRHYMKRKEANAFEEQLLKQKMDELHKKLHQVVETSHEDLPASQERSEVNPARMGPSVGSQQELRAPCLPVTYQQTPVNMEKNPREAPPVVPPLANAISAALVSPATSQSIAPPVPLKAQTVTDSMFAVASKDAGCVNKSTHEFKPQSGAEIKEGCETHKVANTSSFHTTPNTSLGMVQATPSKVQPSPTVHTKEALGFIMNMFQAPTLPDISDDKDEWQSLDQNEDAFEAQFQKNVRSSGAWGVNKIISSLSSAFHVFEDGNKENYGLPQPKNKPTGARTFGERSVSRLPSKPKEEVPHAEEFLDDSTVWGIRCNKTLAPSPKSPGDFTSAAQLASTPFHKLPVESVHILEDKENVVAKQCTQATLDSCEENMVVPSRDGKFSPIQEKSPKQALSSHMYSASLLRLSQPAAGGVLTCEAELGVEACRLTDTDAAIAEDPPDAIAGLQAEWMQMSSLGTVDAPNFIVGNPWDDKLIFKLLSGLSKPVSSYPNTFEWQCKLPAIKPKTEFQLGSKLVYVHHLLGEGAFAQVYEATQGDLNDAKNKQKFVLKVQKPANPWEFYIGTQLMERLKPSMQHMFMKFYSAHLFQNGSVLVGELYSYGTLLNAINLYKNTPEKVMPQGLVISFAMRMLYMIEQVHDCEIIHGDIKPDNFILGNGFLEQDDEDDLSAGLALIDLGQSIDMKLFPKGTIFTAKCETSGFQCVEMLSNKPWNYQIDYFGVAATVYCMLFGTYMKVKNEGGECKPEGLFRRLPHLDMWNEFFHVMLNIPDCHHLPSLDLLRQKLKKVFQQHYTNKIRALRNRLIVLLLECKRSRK
UniProt O60566: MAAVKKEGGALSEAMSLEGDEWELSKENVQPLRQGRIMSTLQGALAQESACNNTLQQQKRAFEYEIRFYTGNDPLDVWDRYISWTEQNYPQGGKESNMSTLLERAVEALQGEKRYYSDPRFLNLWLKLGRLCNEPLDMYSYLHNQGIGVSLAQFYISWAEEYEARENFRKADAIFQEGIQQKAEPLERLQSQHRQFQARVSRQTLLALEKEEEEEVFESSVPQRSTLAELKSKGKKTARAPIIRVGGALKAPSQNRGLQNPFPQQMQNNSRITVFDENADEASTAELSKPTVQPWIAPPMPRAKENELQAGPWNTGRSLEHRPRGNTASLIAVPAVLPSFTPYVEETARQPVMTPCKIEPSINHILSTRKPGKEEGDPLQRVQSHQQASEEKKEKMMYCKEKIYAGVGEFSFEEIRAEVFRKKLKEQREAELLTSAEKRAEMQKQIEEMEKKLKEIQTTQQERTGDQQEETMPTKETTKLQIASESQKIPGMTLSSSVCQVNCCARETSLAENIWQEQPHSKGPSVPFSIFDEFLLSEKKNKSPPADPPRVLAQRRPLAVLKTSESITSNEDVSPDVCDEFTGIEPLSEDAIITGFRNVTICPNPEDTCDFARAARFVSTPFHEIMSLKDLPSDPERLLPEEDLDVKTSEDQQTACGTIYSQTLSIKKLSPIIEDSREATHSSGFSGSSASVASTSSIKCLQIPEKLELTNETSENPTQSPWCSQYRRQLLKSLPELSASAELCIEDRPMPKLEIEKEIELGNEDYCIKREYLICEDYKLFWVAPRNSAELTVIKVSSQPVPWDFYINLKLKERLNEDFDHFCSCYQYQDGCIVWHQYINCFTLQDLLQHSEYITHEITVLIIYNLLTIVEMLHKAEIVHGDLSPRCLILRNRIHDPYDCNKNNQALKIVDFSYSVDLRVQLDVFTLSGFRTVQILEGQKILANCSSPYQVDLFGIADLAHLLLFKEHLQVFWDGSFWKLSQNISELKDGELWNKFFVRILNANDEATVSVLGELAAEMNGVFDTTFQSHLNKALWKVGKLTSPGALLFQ
UniProt O00139: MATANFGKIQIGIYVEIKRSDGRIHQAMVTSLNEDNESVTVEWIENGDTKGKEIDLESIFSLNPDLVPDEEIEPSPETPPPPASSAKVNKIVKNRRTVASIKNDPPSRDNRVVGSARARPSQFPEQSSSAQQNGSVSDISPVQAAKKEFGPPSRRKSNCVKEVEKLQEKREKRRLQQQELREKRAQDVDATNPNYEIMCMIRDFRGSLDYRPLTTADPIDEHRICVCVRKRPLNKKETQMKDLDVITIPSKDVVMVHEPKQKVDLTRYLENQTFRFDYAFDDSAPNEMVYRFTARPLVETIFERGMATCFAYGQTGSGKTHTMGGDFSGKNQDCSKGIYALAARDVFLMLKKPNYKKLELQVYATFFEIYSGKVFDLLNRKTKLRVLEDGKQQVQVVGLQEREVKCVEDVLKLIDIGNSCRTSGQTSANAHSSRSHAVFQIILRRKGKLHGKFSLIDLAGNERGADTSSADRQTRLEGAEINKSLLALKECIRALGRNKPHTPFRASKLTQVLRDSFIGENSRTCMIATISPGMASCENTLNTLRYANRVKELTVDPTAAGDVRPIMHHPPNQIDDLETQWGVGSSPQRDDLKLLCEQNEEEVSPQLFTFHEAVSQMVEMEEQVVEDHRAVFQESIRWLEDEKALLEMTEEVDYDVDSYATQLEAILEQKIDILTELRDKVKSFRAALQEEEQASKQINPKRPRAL

According to publication doi:10.1101/2022.11.06.515368:

target: endogenously FLAG-tagged UBR5 (human) (UniProt O95071); assay: affinity purification with mass spectrometry

binding, binds:
PLK1 (from UniProt P53350 1-603) (enzyme)
BUB3 (from UniProt O43684 1-328)
BUB1 (from UniProt O43683 1-1085)
BUBR1 (from UniProt O60566 1-1050)
KIF2A (from UniProt O00139 1-706)

Results are given in words; binding and its absence hold for the method and conditions named. Binding seen in cells or lysates may run through a third protein. A yes stands for co-enrichment or nearness to the bait. Other partners may have been found.
